Measurements from publication doi:10.1101/2023.05.23.541941.
Results are given in words; binding and its absence hold for the method and conditions named. For some of these results: In cells and extracts the contact can be indirect. Some entries that bind do so weakly or less than the wild type. Values belong to the substance of their own block, whether it stands above or below them.

By UniProt entry, the sequences of proteins in these tests, tags left out. Where a name states a change or a piece, a line headed by the entry shows the natural chain unless it says otherwise. Chains listed by the source or under a name are the forms on record and can include a tag or linker.
UniProt P17839: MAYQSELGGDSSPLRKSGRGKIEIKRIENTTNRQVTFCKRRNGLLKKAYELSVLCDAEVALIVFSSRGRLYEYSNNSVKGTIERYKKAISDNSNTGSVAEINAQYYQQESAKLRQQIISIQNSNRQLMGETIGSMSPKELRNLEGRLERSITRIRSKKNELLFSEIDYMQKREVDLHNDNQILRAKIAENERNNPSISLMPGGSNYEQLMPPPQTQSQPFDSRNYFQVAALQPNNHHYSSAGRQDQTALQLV
AG^Δtet-5Myc (P17839, form named): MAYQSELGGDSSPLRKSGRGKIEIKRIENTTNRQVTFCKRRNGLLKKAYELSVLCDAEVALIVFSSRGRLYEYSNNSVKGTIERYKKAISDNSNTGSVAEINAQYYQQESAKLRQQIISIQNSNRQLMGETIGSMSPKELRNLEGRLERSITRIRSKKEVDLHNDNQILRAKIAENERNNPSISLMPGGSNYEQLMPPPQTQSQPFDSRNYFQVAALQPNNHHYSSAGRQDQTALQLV
UniProt O22456: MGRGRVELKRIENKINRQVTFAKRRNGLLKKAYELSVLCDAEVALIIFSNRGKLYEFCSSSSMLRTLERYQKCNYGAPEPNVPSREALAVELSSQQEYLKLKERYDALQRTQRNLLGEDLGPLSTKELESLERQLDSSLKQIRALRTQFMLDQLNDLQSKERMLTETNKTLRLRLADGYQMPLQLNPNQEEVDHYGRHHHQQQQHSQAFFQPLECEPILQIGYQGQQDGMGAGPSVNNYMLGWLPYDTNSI
SEP3^Δtet3M-3FLAG (O22456, form named): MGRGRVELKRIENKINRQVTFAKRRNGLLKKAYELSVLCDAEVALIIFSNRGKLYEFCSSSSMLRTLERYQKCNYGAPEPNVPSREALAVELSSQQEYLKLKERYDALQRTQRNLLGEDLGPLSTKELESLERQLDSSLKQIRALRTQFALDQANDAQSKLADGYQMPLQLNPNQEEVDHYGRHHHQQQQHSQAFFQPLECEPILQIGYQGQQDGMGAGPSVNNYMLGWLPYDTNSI
SEP3^Δtet-3FLAG (O22456, form named): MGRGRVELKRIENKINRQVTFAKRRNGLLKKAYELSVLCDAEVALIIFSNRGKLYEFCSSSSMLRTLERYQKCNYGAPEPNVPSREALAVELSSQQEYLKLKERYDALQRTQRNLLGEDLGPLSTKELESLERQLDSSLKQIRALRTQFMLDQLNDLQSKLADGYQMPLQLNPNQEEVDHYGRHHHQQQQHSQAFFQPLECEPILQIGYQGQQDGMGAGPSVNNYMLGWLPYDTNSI
UniProt P35631: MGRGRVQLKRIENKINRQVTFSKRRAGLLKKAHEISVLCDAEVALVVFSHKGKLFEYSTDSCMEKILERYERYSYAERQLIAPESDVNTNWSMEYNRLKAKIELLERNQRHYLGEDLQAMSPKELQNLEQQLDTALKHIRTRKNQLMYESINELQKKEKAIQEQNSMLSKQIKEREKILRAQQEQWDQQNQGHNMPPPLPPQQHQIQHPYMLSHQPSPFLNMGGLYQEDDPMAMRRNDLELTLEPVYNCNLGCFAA

Experiments:
[1] = molecular target: AG (At4g18960.1) (Arabidopsis thaliana) (UniProt P17839); test: native gel or EMSA
[2] = molecular target: SEP3^Δtet/AG heterodimer (Arabidopsis thaliana) (UniProt O22456+P17839); test: native gel or EMSA
[3] = molecular target: T1, AP3/PI heterodimer (Arabidopsis thaliana) (UniProt P35632+P48007); test: native gel or EMSA
T1 sequence 1: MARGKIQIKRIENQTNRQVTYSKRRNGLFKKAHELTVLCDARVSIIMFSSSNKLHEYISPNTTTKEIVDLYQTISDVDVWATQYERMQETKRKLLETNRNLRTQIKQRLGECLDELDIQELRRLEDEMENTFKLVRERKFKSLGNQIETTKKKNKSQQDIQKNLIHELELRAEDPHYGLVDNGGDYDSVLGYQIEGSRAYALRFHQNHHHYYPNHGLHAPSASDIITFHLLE
T1 sequence 2: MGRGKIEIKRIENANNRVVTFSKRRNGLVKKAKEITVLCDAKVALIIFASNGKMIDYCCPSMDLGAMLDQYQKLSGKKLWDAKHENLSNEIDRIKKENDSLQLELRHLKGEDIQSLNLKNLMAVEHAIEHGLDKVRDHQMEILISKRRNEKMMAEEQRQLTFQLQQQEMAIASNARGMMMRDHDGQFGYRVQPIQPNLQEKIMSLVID

[4] = molecular target: AP1 (AT1G69120) (Arabidopsis thaliana) (UniProt P35631); test: native gel or EMSA
[5] = molecular target: SEP3/AP1 heterodimer (Arabidopsis thaliana) (UniProt O22456+P35631); test: native gel or EMSA
[6] = molecular target: AG-5Myc (Arabidopsis thaliana) (UniProt P17839); test: co-IP
[7] = molecular target: AG^Δtet (Arabidopsis thaliana) (UniProt P17839); test: native gel or EMSA
[8] = molecular target: AG^Δtet-5Myc (Arabidopsis thaliana) (UniProt P17839); test: co-IP
[9] = molecular target: SEP3/AG heterodimer (wild type) (Arabidopsis thaliana) (UniProt O22456+P17839); test: native gel or EMSA

Substance: SEP3^Δtet/AG heterodimer (from UniProt O22456 1-251; P17839 1-252) (complex)
- binding [2]: binds
- binding [3]: binds

Substance: SEP3^Δtet3M/AG heterodimer (from UniProt O22456 1-251; P17839 1-252) (complex)
- binding [3]: binds

Substance: SEP3^Δtet/AG^Δtet heterodimer (from UniProt O22456 1-251; P17839 1-252) (complex)
- binding [3]: no binding

Substance: SEP3^Δtet3M-3FLAG (from UniProt O22456 1-251)
- binding [6]: binds

Substance: SEP3^Δtet (At1g24260.3) (from UniProt O22456 1-251)
- binding [1]: binds
- binding [7]: binds

Substance: SEP3^Δtet-3FLAG (from UniProt O22456 1-251)
- binding [8]: binds

Now from value to substance:

- binding [1]: binds
Substance: SEP3^Δtet3M (from UniProt O22456 1-251)

- binding [3]: binds
Substance: SEP3^Δtet3M/AP1 (of the mixture SEP3^Δtet3M/AP1/AP3/PI) (from UniProt O22456 1-251; P35631 1-256) (complex)

- binding [1]: binds
- binding [4]: binds
Substance: SEP3 (At1g24260.2) (from UniProt O22456 1-251)

- binding [5]: binds
- binding [3]: binds
Substance: SEP3/AP1 heterodimer (from UniProt O22456 1-251; P35631 1-256) (complex)

- binding [3]: binds
Substance: SEP3^Δtet/AP1 (of the mixture SEP3^Δtet/AP1/AP3/PI) (from UniProt O22456 1-251; P35631 1-256) (complex)

- binding [9]: binds
Substance: SEP3/AG heterodimer (wild type) (from UniProt O22456 1-251; P17839 1-252) (complex)
